The other results are listed elsewhere or left out. Repeats are few or missing, and single values can be far off.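 Cells were imaged in 1,536-well plates, and nuclei stained with an antibody against cleaved PARP were counted against all DNA-stained nuclei to give the apoptosis fraction. Screening doses were chosen to leave most cells alive, and resting and induced cleaved-PARP levels differ strongly between cell lines.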
Experiments:
Experiment in all cases: cleaved PARP positive nuclei fraction relative to DMSO control; melanoma cells; higher = more apoptosis
Conditions in all cases: library dose: low library concentration; 72 h
MZ2-MEL = test system: MZ2-MEL
MeWo = test system: MeWo
RPMI7951 = test system: RPMI7951
RVH-421 = test system: RVH-421
SkMel28 = test system: SkMel28
SkMel2 = test system: SkMel2
SkMel30 = test system: SkMel30
UACC62 = test system: UACC62
WM115 = test system: WM115
WM1716 = test system: WM1716
WM1745 = test system: WM1745
WM3526 = test system: WM3526
WM3619 = test system: WM3619
WM451Lu = test system: WM451Lu

Structure (SMILES) | cleaved PARP positive nuclei fraction (MZ2-MEL) | cleaved PARP positive nuclei fraction (MeWo) | cleaved PARP positive nuclei fraction (RPMI7951) | cleaved PARP positive nuclei fraction (RVH-421) | cleaved PARP positive nuclei fraction (SkMel28) | cleaved PARP positive nuclei fraction (SkMel2) | cleaved PARP positive nuclei fraction (SkMel30) | cleaved PARP positive nuclei fraction (UACC62) | cleaved PARP positive nuclei fraction (WM115) | cleaved PARP positive nuclei fraction (WM1716) | cleaved PARP positive nuclei fraction (WM1745) | cleaved PARP positive nuclei fraction (WM3526) | cleaved PARP positive nuclei fraction (WM3619) | cleaved PARP positive nuclei fraction (WM451Lu)
CCCS(=O)(=O)Nc1ccc(F)c(C(=O)c2c[nH]c3ncc(Cl)cc23)c1F + C[C@]1(c2nc3c(C(N)=O)cccc3[nH]2)CCCN1 [Veliparib] (first compound 0.08 µM, partner dose 1.4 µM) | 154% | 51.3% | 98% | 128% | 66.5% | 54.7% | 179% | 168% | 145% | 148% | 109% | 104% | 99.6% | 70.3%
CS(=O)(=O)CCNCc1ccc(-c2ccc3ncnc(Nc4ccc(OCc5cccc(F)c5)c(Cl)c4)c3c2)o1 [lapatinib] + C=CCNC1=C2C[C@@H](C)C[C@H](OC)[C@H](O)[C@@H](C)/C=C(\C)[C@H](OC(N)=O)[C@@H](OC)/C=C\C=C(/C)C(=O)NC(=CC1=O)C2=O [Tanespimycin] (first compound 0.8 µM, partner dose 0.002 µM) | 103% | 66.9% | 59.9% | 84.7% | 96.8% | 80.3% | 112% | 98.7% | 72.2% | 309% | 683% | 67.6% | 68.7% | 31.7%
CCCS(=O)(=O)Nc1ccc(F)c(C(=O)c2c[nH]c3ncc(Cl)cc23)c1F + Cc1nc(Nc2ncc(C(=O)Nc3c(C)cccc3Cl)s2)cc(N2CCN(CCO)CC2)n1 [dasatanib] (first compound 0.08 µM, partner dose 0.004 µM) | 156% | 31.9% | 169% | 150% | 52.3% | 117% | 76.6% | 225% | 208% | 51.3% | 136% | 72.4% | 111% | 121%
CC(C)C[C@H](NC(=O)[C@H](Cc1ccccc1)NC(=O)c1cnccn1)B(O)O [Bortezomib] + OCc1c[nH]c2ccccc12 [Indole-3-carbinol] (first compound 0.001 µM, partner dose 0.8 µM) | 126% | 120% | 119% | 243% | 174% | 113% | 109% | 47.7% | 51.9% | 988% | 109% | 42.3% | 321% | 81.3%
Nc1ccn([C@@H]2O[C@H](CO)[C@@H](O)C2(F)F)c(=O)n1 [gemcitabine] + CC(=O)c1c(C)c2cnc(Nc3ccc(N4CCNCC4)cn3)nc2n(C2CCCC2)c1=O [palbociclib] (first compound 0.0004 µM, partner dose 0.04 µM) | 129% | 34.2% | 239% | 47.3% | 45.8% | 101% | 157% | 49.5% | 44% | 25.9% | 126% | 43% | 111% | 35.1%
O=C(O)[C@@H]1[O][Sb](=[O])([O][Sb]2(=[O])[O][C@H]([C@H](O)CO)[C@H](O)[C@H](C(=O)O)[O]2)[O][C@H]([C@H](O)CO)[C@@H]1O (stereo partly specified) [stibogluconate] + CC(=O)c1c(C)c2cnc(Nc3ccc(N4CCNCC4)cn3)nc2n(C2CCCC2)c1=O [palbociclib] (first compound 2 µM, partner dose 0.04 µM) | 56.5% | 27.3% | 92.5% | 115% | 165% | 119% | 87% | 214% | 103% | 99.3% | 155% | 408% | 123% | 112%
Nc1ncn([C@H]2C[C@H](O)[C@@H](CO)O2)c(=O)n1 [decitabine] + Nc1cccc2c1CN(C1CCC(=O)NC1=O)C2=O [lenalidomide] (first compound 0.1 µM, partner dose 1 µM) | 37.3% | 269% | 98.8% | 75.9% | 44% | 106% | 118% | 81.5% | 120% | 41.4% | 119% | 303% | 102% | 42.8%
O=C(O)c1ccc2c(c1)nc(Nc1cccc(Cl)c1)c1ccncc12 + COc1ccc(Cl)c(Nc2nc3ccccc3nc2NS(=O)(=O)c2cccc(NC(=O)C(C)(C)N)c2)c1 [XL147] (first compound 0.4 µM, partner dose 0.8 µM) | 78.3% | 138% | 58.1% | 74.8% | 69.8% | 101% | 34.3% | 165% | 153% | 155% | 123% | 96.7% | 94.3% | 95.9%
CC(C)C[C@H](NC(=O)[C@H](Cc1ccccc1)NC(=O)c1cnccn1)B(O)O [Bortezomib] + C#Cc1cccc(Nc2ncnc3cc(OCCOC)c(OCCOC)cc23)c1 [erlotinib] (first compound 0.001 µM, partner dose 0.8 µM) | 133% | 69% | 167% | 162% | 314% | 107% | 115% | 187% | 93.4% | 216% | 302% | 95.1% | 800% | 46.2%

Exported as tab-separated lines: part of the list above.
Structure (SMILES)	cleaved PARP positive nuclei fraction (MZ2-MEL)	cleaved PARP positive nuclei fraction (MeWo)	cleaved PARP positive nuclei fraction (RPMI7951)	cleaved PARP positive nuclei fraction (RVH-421)	cleaved PARP positive nuclei fraction (SkMel28)	cleaved PARP positive nuclei fraction (SkMel2)	cleaved PARP positive nuclei fraction (SkMel30)	cleaved PARP positive nuclei fraction (UACC62)	cleaved PARP positive nuclei fraction (WM115)	cleaved PARP positive nuclei fraction (WM1716)	cleaved PARP positive nuclei fraction (WM1745)	cleaved PARP positive nuclei fraction (WM3526)	cleaved PARP positive nuclei fraction (WM3619)	cleaved PARP positive nuclei fraction (WM451Lu)
Nc1ncn([C@H]2C[C@H](O)[C@@H](CO)O2)c(=O)n1 [decitabine] + Nc1cccc2c1CN(C1CCC(=O)NC1=O)C2=O [lenalidomide] (first compound 0.1 µM, partner dose 1 µM)	37.3%	269%	98.8%	75.9%	44%	106%	118%	81.5%	120%	41.4%	119%	303%	102%	42.8%
O=C(O)c1ccc2c(c1)nc(Nc1cccc(Cl)c1)c1ccncc12 + COc1ccc(Cl)c(Nc2nc3ccccc3nc2NS(=O)(=O)c2cccc(NC(=O)C(C)(C)N)c2)c1 [XL147] (first compound 0.4 µM, partner dose 0.8 µM)	78.3%	138%	58.1%	74.8%	69.8%	101%	34.3%	165%	153%	155%	123%	96.7%	94.3%	95.9%
